The test addresses T1, HA-PRR11-WT (proline-rich 11) (human) (UniProt Q96HE9).
T1 sequence: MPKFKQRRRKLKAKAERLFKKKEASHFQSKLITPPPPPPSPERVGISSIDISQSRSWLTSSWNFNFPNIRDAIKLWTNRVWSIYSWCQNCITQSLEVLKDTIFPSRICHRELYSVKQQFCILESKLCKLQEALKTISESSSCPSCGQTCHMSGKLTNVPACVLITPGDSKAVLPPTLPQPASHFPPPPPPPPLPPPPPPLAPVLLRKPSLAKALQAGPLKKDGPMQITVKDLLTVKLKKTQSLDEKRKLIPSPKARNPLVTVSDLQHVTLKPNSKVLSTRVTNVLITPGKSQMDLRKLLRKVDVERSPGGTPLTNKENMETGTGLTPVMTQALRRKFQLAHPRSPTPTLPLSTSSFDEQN
Briefly: affinity purification with mass spectrometry; HA-PRR11 (HA-Vector as control) transfected into 293T cells for 48 h; co-IP with HA antibody, SDS-PAGE, silver staining, timsTOF Pro mass spectrometry.

Protein sequences, listed by entry. Tags and fused reporters are not part of them.
UniProt P49841: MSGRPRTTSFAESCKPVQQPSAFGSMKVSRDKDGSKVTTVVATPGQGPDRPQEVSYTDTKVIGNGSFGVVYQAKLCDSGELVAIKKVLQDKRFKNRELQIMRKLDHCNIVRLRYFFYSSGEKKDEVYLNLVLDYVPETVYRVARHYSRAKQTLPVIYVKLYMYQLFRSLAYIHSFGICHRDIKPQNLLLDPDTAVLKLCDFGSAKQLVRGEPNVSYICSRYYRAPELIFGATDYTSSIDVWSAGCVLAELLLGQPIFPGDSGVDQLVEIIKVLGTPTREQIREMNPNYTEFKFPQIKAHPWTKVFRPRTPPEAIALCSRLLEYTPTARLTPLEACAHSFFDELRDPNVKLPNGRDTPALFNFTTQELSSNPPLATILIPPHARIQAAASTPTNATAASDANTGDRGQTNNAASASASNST
UniProt Q92747: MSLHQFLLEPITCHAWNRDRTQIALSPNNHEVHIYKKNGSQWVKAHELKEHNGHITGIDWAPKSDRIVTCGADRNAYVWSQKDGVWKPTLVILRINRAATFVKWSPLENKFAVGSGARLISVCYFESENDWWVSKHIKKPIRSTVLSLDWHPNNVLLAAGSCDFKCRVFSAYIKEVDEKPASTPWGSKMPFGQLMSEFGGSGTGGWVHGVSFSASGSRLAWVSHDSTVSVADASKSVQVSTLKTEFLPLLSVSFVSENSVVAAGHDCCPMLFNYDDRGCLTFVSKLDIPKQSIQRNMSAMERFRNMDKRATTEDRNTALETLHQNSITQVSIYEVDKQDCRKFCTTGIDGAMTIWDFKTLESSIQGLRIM
UniProt Q969H0: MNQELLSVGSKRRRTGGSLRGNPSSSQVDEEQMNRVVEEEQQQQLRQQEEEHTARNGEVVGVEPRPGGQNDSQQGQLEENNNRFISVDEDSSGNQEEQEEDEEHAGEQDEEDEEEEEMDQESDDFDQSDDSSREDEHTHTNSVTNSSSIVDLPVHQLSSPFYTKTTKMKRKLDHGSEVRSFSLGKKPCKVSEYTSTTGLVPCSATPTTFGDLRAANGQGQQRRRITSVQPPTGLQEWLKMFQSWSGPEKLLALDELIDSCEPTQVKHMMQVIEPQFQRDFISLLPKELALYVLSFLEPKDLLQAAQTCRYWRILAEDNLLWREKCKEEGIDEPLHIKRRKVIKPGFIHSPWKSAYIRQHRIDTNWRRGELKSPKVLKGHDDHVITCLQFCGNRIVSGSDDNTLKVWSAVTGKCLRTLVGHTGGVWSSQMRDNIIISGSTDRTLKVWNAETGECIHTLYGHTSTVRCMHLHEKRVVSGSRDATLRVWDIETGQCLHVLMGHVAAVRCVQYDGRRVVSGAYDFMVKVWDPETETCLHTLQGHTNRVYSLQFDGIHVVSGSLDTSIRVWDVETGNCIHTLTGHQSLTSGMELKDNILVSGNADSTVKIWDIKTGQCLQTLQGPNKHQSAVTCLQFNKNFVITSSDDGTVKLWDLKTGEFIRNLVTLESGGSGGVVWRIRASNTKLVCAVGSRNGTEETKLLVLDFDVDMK

The values that follow come from paper PMC11898301.

These are yes or no findings as the source states them, for the method shown. Binding seen in cells or lysates may run through a third protein. A yes stands for co-enrichment or nearness to the bait. Other partners may have been found. Where a sequence is shown, tags or fusion partners need not be part of it.

For the substance ARPC1B (from UniProt O15143 1-372), the binding entry is recorded as “binds”. As to “endogenous GSK3β (from UniProt P49841 1-420)”, the binding result was “binds”.

Take ARPC1A (from UniProt Q92747 1-370): the binding result was “binds”. The entry for “endogenous FBXW7 (from UniProt Q969H0 1-707)” is “binds”.
